The assay deals with catalytic domain of MINDY2 (residues 241-504) (UniProt Q8NBR6). Briefly: SEC-SAXS; Superdex 200 10/300 coupled to SAXS; 20 mM HEPES pH 7.5, 100 mM NaCl, 5 mM DTT; MINDY2 apo and non-covalent complexes of MINDY2^C266A with K48 chains; both purified. For orientation: Size exclusion chromatography separates by hydrodynamic size, large species first.

No constants are given. Whether binding was seen depends on the method and setting.

B1: catalytic domain of MINDY2 (residues 241-504) (domain or fragment, UniProt Q8NBR6 241-504)
chain: SVYHIKWIQWKEENTPIITQNENGPCPLLAILNVLLLAWKVKLPPMMEIITAEQLMEYLGDYMLDAKPKEISEIQRLNYEQNMSDAMAILHKLQTGLDVNVRFTGVRVFEYTPECIVFDLLDIPLYHGWLVDPQIDDIVKAVGNCSYNQLVEKIISCKQSDNSELVSEGFVAEQFLNNTATQLTYHGLCELTSTVQEGELCVFFRNNHFSTMTKYKGQLYLLVTDQGFLTEEKVVWESLHNVDGDGNFCDSEFHLRPPSDPETV
For the molecule B1, the binding entry was “no binding”.

The values are drawn from article PMC8550791.
